From patent US5364623A, “Antibiotic produced by Bacillus subtilis ATCC 55422 capable of inhibiting bacteria” (Bristol-Myers Squibb Company, priority 1993, dated 1994)
At least one structure is not confirmed: it was looked up by name or label, or the drawing left a doubt.

Assays:
Format in all cases: cell-based
Set-up in all cases: key: growth inhibition (multiple "+" signs indicate larger zones of inhibition); ++: growth inhibition (multiple "+" signs indicate larger zones of inhibition); +++: growth inhibition (multiple "+" signs indicate larger zones of inhibition); ++++: growth inhibition (multiple "+" signs indicate larger zones of inhibition); -: no zone of inhibition observed at the concentration tested
Settings in all cases: 25 μg per well, overnight at 37° C.
[1] = test system: Bacillus thuringiensis; test: Agar diffusion, B. thuringiensis
[2] = test system: Serratia marcescens SC-9783; test: Agar diffusion, S. marcescens SC-9783
[3] = test system: Klebsiella pneumoniae SC-9527; test: Agar diffusion, K. pneumoniae SC-9527
[4] = test system: Staphylococcus epidermidis SC-9087; test: Agar diffusion, S. epidermidis SC-9087
[5] = test system: Proteus mirabilis SC-3855; test: Agar diffusion, P. mirabilis SC-3855
[6] = test system: Proteus vulgaris SC-9416; test: Agar diffusion, P. vulgaris SC-9416
[7] = test system: Klebsiella pneumoniae SC-10440; test: Agar diffusion, K. pneumoniae SC-10440
[8] = test system: Pseudomonas aeruginosa SC-9087; test: Agar diffusion, P. aeruginosa SC-9087
[9] = test system: Escherichia coli SC-10909; test: Agar diffusion, E. coli SC-10909

Question: Which results are given for `C/C(=C/C=C/C=C/C(C)C(=O)O)NC(=O)CC(O)\C(C)=C/C=C\C=C(C)\C=C\C=C/C=C/CNC(=O)C(O)CC(C)C` (stereo not drawn) [Bacillaene, bacillaene]?
Answer: Growth Inhibition [1]: +++; Growth Inhibition [2]: ++++; Growth Inhibition [3]: +; Growth Inhibition [4]: -; Growth Inhibition [5]: +++; Growth Inhibition [6]: ++++; Growth Inhibition [7]: +; Growth Inhibition [8]: -; Growth Inhibition [9]: +++
